# Screening data

From PubChem BioAssay record AID912 (NCATS, 2007).

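A cell-based FRET test of anthrax lethal toxin entry, tracked through the 460 nm emission signal; the cell line is not named here.
Each compound was tested as a concentration series from about 0.0005 to 40 µM.
The number is the fitted AC50 of the 460 nm signal alone; lower values mean a more potent effect. A falling signal goes with compounds filed as inhibitors or cytotoxic, a rising one with activators or fluorescent compounds (inferred from the filed classes).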

Values are in nM.
Common to all entries: measured here: 460 nm channel.
Part of the compounds only, not a random draw; the main read-out is not listed here.
Potencies fitted to partial, single-point or poorly fitting curves are rough.
The first word of each remark tells which way the curve ran; it can be opposite to the aim of the assay.

- Cc1o[nH]c(=O)c1CC[C@H](N)C(=O)O | AC50 12589 nM (falling, single point)
- COC(=O)c1ccc(S(=O)(=O)N2CCCC2)o1 | AC50 631 nM (rising, full curve, poor fit)
- CCOC(=O)CC1=C(C(=O)OCC)C2(C(=O)N1)C(C(=O)OC)=C(N)Oc1ccccc12 (configuration not stated) | AC50 10000 nM (rising, single point)
- COc1ccccc1N(C(=O)NCc1ccccc1)C1=NCC(C)S1 (configuration not stated) | AC50 15848 nM (falling, partial curve)
- COc1cc(OC)cc(-c2nnc(Nc3nc4c(F)cccc4s3)o2)c1 | AC50 5012 nM (falling, single point)
- Cn1c(C(=O)N(Cc2ccccc2)Cc2cccs2)cc2sccc21 | AC50 12589 nM (falling, partial curve)
- CCCCCCNC(=O)C(C#N)c1nc2ccccc2nc1N1CCCC1 (configuration not stated) | AC50 25118 nM (rising, single point)
- COC(=O)CSc1nnc([C@H](CC(C)C)NC(=O)OC(C)(C)C)o1 | AC50 10000 nM (rising, partial curve)
- COc1cc(-c2nc(S(=O)(=O)c3ccc(C)cc3)c(N(C)C)o2)cc(OC)c1OC | AC50 12589 nM (falling, single point)
- COc1ccc(-n2c(=O)c(-c3ccc(Cl)cc3)nc3cnc(N(C)C)nc32)cc1 | AC50 631 nM (rising, full curve)
- Oc1ccc2c3c1O[C@H]1c4[nH]c5c(c4C[C@@]4(O)[C@@H](C2)N(CC2CC2)CC[C@]314)C[C@]1(O)[C@H]2Cc3ccc(O)c4c3[C@@]1(CCN2CC1CC1)[C@@H]5O4 | AC50 10 nM (rising, full curve, poor fit)
- Cn1nnnc1SCC(=O)NCc1cccc(C(=O)O)c1 | AC50 794.3 nM (falling, full curve)
- COc1cc(NC(=O)N[C@H](C(=O)O)C(C)C)cc(OC)c1 | AC50 31622 nM (rising, single point)
- COc1ccc(N2CCN(C(=O)C(C)(C)Oc3ccc(Cl)cc3)CC2)cc1 | AC50 15848 nM (falling, partial curve, poor fit)
- O=C1C2C3C=CC(CO)(O3)C2C(=O)N1c1ccc(-c2ccccc2)cc1 (configuration not stated) | AC50 10000 nM (falling, partial curve)
- c1nc(NCC2CCCO2)c2[nH]cnc2n1 (configuration not stated) | AC50 31622 nM (rising, single point)
- CCS(=O)c1ccccc1C(=O)O (configuration not stated) | AC50 15848 nM (rising, single point)
- CN(C)c1ncc2nc(-c3ccc(Cl)cc3)c(=O)n(CCC#N)c2n1 | AC50 1259 nM (rising, partial curve)
- Cn1c(=O)c2c(nc(SCc3cc4c(cc3Cl)OCO4)n2C)n(C)c1=O | AC50 501.2 nM (falling, single point)